From article doi:10.1101/2021.08.25.457671
These are yes or no findings as the source states them, for the method shown. Binding seen in cells or lysates may run through a third protein. Some binding calls cover weakened binding; strength is not graded here. For part of these data: Sequences can lack the tags named with a protein.

The chains behind the UniProt entries cited, without tags or fusion partners.
UniProt P47079: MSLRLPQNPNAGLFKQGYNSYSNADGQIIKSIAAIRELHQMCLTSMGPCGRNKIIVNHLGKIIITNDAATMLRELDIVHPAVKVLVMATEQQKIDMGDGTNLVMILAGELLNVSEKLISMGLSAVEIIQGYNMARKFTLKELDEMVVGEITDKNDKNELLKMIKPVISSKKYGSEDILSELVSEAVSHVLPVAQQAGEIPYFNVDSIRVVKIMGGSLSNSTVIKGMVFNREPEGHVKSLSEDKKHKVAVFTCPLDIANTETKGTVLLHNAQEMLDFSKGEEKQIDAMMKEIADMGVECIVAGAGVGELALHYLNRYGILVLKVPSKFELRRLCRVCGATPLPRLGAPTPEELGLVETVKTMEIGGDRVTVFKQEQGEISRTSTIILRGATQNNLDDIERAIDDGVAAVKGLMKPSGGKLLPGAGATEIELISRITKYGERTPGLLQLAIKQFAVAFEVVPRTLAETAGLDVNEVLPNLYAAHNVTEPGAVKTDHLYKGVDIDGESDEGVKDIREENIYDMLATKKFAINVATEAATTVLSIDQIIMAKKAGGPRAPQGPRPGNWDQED
UniProt P32480: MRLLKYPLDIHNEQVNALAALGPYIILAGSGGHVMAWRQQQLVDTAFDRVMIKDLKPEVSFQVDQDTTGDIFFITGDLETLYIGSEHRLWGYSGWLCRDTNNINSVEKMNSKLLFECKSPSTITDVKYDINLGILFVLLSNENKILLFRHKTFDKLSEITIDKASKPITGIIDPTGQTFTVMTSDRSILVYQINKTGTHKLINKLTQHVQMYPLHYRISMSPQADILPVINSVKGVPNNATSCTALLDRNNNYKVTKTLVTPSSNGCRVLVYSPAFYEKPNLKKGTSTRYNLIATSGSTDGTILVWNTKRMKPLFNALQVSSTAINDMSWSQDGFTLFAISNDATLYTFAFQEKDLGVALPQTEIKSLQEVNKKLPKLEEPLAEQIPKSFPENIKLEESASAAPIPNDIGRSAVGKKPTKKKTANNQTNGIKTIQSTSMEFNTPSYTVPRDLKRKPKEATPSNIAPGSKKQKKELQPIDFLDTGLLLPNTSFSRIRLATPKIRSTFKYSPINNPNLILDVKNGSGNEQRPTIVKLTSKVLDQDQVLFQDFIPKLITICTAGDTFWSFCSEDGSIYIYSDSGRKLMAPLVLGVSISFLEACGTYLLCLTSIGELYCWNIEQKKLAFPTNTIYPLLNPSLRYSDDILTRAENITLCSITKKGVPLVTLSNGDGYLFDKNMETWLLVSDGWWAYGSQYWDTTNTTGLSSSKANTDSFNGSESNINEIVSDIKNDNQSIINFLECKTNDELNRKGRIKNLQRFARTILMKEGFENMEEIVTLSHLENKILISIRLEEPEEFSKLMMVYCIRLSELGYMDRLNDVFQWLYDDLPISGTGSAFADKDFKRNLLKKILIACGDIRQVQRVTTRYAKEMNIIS
UniProt P10591: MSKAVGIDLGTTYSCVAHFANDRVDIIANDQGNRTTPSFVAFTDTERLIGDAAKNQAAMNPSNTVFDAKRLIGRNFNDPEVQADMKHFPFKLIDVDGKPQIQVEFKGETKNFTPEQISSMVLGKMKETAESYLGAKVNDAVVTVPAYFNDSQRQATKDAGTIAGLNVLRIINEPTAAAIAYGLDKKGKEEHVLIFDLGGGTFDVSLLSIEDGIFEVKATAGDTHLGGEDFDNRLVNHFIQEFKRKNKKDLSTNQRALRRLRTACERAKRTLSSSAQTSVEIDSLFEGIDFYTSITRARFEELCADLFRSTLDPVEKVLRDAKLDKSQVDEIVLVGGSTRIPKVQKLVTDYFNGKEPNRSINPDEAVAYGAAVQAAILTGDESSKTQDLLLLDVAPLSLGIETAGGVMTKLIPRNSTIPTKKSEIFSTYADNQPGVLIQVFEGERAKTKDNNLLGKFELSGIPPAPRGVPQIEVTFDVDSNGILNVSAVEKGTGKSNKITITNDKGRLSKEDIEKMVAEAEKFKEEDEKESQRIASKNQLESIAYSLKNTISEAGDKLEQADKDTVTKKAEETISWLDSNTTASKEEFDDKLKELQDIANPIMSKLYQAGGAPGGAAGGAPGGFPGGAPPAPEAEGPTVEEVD

T1: HA-tagged Pcl7 (budding yeast) (UniProt P40186)
T1 sequence: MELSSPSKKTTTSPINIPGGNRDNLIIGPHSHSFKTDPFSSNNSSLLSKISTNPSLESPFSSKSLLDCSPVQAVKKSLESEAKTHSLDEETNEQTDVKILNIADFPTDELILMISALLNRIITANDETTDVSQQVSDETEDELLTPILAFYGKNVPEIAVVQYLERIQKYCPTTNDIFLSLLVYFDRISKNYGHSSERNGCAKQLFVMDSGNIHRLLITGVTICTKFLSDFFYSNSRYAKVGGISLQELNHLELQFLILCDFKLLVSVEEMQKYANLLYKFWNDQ

T2: HA-tagged Ura8 (budding yeast) (UniProt P38627)
T2 sequence: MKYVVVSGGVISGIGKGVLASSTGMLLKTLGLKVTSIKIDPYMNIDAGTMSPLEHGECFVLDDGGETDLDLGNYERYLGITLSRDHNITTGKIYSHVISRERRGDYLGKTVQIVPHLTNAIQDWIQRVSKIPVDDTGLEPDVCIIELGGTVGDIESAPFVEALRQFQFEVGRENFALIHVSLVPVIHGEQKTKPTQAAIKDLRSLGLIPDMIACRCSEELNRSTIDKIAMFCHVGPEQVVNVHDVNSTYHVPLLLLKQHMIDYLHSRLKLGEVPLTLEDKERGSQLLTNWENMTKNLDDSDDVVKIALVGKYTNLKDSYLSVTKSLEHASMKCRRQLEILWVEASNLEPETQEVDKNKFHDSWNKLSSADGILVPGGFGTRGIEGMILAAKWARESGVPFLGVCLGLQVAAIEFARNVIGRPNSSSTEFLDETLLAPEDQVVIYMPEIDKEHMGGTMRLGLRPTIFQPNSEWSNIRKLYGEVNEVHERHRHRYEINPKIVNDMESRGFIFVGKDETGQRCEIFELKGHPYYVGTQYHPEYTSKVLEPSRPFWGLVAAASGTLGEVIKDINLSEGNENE

T3: Mtw1 (bait of the co-IP in yeast) (budding yeast) (UniProt P39731)
T3 sequence: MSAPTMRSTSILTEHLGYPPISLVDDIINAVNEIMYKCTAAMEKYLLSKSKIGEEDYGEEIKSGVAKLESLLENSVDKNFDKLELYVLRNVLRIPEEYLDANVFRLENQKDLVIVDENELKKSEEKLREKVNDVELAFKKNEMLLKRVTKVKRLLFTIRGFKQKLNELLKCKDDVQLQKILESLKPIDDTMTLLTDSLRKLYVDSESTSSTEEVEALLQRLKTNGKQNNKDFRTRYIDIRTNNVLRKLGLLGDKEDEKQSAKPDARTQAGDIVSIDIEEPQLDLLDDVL

B1: Sse1 (protein, UniProt P32589 1-693)
chain: MSTPFGLDLGNNNSVLAVARNRGIDIVVNEVSNRSTPSVVGFGPKNRYLGETGKNKQTSNIKNTVANLKRIIGLDYHHPDFEQESKHFTSKLVELDDKKTGAEVRFAGEKHVFSATQLAAMFIDKVKDTVKQDTKANITDVCIAVPPWYTEEQRYNIADAARIAGLNPVRIVNDVTAAGVSYGIFKTDLPEGEEKPRIVAFVDIGHSSYTCSIMAFKKGQLKVLGTACDKHFGGRDFDLAITEHFADEFKTKYKIDIRENPKAYNRILTAAEKLKKVLSANTNAPFSVESVMNDVDVSSQLSREELEELVKPLLERVTEPVTKALAQAKLSAEEVDFVEIIGGTTRIPTLKQSISEAFGKPLSTTLNQDEAIAKGAAFICAIHSPTLRVRPFKFEDIHPYSVSYSWDKQVEDEDHMEVFPAGSSFPSTKLITLNRTGDFSMAASYTDITQLPPNTPEQIANWEITGVQLPEGQDSVPVKLKLRCDPSGLHTIEEAYTIEDIEVEEPIPLPEDAPEDAEQEFKKVTKTVKKDDLTIVAHTFGLDAKKLNELIEKENEMLAQDKLVAETEDRKNTLEEYIYTLRGKLEEEYAPFASDAEKTKLQGMLNKAEEWLYDEGFDSIKAKYIAKYEELASLGNIIRGRYLAKEEEKKQAIRSKQEASQMAAMAEKLAAQRKAEAEKKEEKKDTEGDVDMD
B2: Rnr2 (protein, UniProt P09938 1-399)
chain: MPKETPSKAAADALSDLEIKDSKSNLNKELETLREENRVKSDMLKEKLSKDAENHKAYLKSHQVHRHKLKEMEKEEPLLNEDKERTVLFPIKYHEIWQAYKRAEASFWTAEEIDLSKDIHDWNNRMNENERFFISRVLAFFAASDGIVNENLVENFSTEVQIPEAKSFYGFQIMIENIHSETYSLLIDTYIKDPKESEFLFNAIHTIPEIGEKAEWALRWIQDADALFGERLVAFASIEGVFFSGSFASIFWLKKRGMMPGLTFSNELICRDEGLHTDFACLLFAHLKNKPDPAIVEKIVTEAVEIEQRYFLDALPVALLGMNADLMNQYVEFVADRLLVAFGNKKYYKVENPFDFMENISLAGKTNFFEKRVSDYQKAGVMSKSTKQEAGAFTFNEDF
B3: Pim1 cross-linked to HIS-Ssa1 (phosphorylated at S974) (enzyme, UniProt P36775 99-1133)
chain: KDDSTSQKKDEDVKIVPDEKDTDNDVEPTRDDEIVNKDQEGEASKNSRSSASGGGQSSSSRSDSGDGSSKQKPPKDVPEVYPQMLALPIARRPLFPGFYKAVVISDERVMKAIKEMLDRQQPYIGAFMLKNSEEDTDVITDKNDVYDVGVLAQITSAFPSKDEKTGTETMTALLYPHRRIKIDELFPPNEEKEKSKEQAKDTDTETTVVEDANNPEDQESTSPATPKLEDIVVERIPDSELQHHKRVEATEEESEELDDIQEGEDINPTEFLKNYNVSLVNVLNLEDEPFDRKSPVINALTSEILKVFKEISQLNTMFREQIATFSASIQSATTNIFEEPARLADFAAAVSAGEEDELQDILSSLNIEHRLEKSLLVLKKELMNAELQNKISKDVETKIQKRQREYYLMEQLKGIKRELGIDDGRDKLIDTYKERIKSLKLPDSVQKIFDDEITKLSTLETSMSEFGVIRNYLDWLTSIPWGKHSKEQYSIPRAKKILDEDHYGMVDVKDRILEFIAVGKLLGKVDGKIICFVGPPGVGKTSIGKSIARALNRKFFRFSVGGMTDVAEIKGHRRTYIGALPGRVVQALKKCQTQNPLILIDEIDKIGHGGIHGDPSAALLEVLDPEQNNSFLDNYLDIPIDLSKVLFVCTANSLETIPRPLLDRMEVIELTGYVAEDKVKIAEQYLVPSAKKSAGLENSHVDMTEDAITALMKYYCRESGVRNLKKHIEKIYRKAALQVVKKLSIEDSPTSSADSKPKESVSSEEKAENNAKSSSEKTKDNNSEKTSDDIEALKTSEKINVSISQKNLKDYVGPPVYTTDRLYETTPPGVVMGLAWTNMGGCSLYVESVLEQPLHNCKHPTFERTGQLGDVMKESSRLAYSFAKMYLAQKFPENRFFEKASIHLHCPEGATPKDGPSAGVTMATSFLSLALNKSIDPTVAMTGELTLTGKVLRIGGLREKAVAAKRSGAKTIIFPKDNLNDWEELPDNVKEGLEPLAADWYNDIFQKLFKDVNTKEGNSVWKAEFEILDAKKEKD
modifications: phosphoserine at 974 (on the cross-linked peptide)
B4: Mtw1 cross-linked to HIS-Ssa1 (phosphorylated at Y86) (protein, UniProt P39731 1-289)
chain: MSAPTMRSTSILTEHLGYPPISLVDDIINAVNEIMYKCTAAMEKYLLSKSKIGEEDYGEEIKSGVAKLESLLENSVDKNFDKLELYVLRNVLRIPEEYLDANVFRLENQKDLVIVDENELKKSEEKLREKVNDVELAFKKNEMLLKRVTKVKRLLFTIRGFKQKLNELLKCKDDVQLQKILESLKPIDDTMTLLTDSLRKLYVDSESTSSTEEVEALLQRLKTNGKQNNKDFRTRYIDIRTNNVLRKLGLLGDKEDEKQSAKPDARTQAGDIVSIDIEEPQLDLLDDVL
modifications: phosphotyrosine at 86 (at the identified site of interaction)
B5: Ste11 cross-linked to HIS-Ssa1 (dimethylated at R305) (enzyme, UniProt P23561 1-717)
chain: MEQTQTAEGTDLLIGDEKTNDLPFVQLFLEEIGCTQYLDSFIQCNLVTEEEIKYLDKDILIALGVNKIGDRLKILRKSKSFQRDKRIEQVNRLKNLMEKVSSLSTATLSMNSELIPEKHCVIFILNDGSAKKVNVNGCFNADSIKKRLIRRLPHELLATNSNGEVTKMVQDYDVFVLDYTKNVLHLLYDVELVTICHANDRVEKNRLIFVSKDQTPSDKAISTSKKLYLRTLSALSQVGPSSSNLLAQNKGISHNNAEGKLRIDNTEKDRIRQIFNQRPPSEFISTNLAGYFPHTDMKRLQKTMRESFRHSARLSIAQRRPLSAESNNIGDILLKHSNAVDMALLQGLDQTRLSSKLDTTKIPKLAHKRPEDNDAISNQLELLSVESGEEEDHDFFGEDSDIVSLPTKIATPKNWLKGACIGSGSFGSVYLGMNAHTGELMAVKQVEIKNNNIGVPTDNNKQANSDENNEQEEQQEKIEDVGAVSHPKTNQNIHRKMVDALQHEMNLLKELHHENIVTYYGASQEGGNLNIFLEYVPGGSVSSMLNNYGPFEESLITNFTRQILIGVAYLHKKNIIHRDIKGANILIDIKGCVKITDFGISKKLSPLNKKQNKRASLQGSVFWMSPEVVKQTATTAKADIWSTGCVVIEMFTGKHPFPDFSQMQAIFKIGTNTTPEIPSWATSEGKNFLRKAFELDYQYRPSALELLQHPWLDAHII
modifications: dimethylation on R305 (on the cross-linked peptide)
B6: Pcl7 found by mass spectrometry with HIS-Ssa1 (protein, UniProt P40186 1-285)
chain: MELSSPSKKTTTSPINIPGGNRDNLIIGPHSHSFKTDPFSSNNSSLLSKISTNPSLESPFSSKSLLDCSPVQAVKKSLESEAKTHSLDEETNEQTDVKILNIADFPTDELILMISALLNRIITANDETTDVSQQVSDETEDELLTPILAFYGKNVPEIAVVQYLERIQKYCPTTNDIFLSLLVYFDRISKNYGHSSERNGCAKQLFVMDSGNIHRLLITGVTICTKFLSDFFYSNSRYAKVGGISLQELNHLELQFLILCDFKLLVSVEEMQKYANLLYKFWNDQ
B7: Ura8 found by mass spectrometry with HIS-Ssa1 (protein, UniProt P38627 1-578)
chain: MKYVVVSGGVISGIGKGVLASSTGMLLKTLGLKVTSIKIDPYMNIDAGTMSPLEHGECFVLDDGGETDLDLGNYERYLGITLSRDHNITTGKIYSHVISRERRGDYLGKTVQIVPHLTNAIQDWIQRVSKIPVDDTGLEPDVCIIELGGTVGDIESAPFVEALRQFQFEVGRENFALIHVSLVPVIHGEQKTKPTQAAIKDLRSLGLIPDMIACRCSEELNRSTIDKIAMFCHVGPEQVVNVHDVNSTYHVPLLLLKQHMIDYLHSRLKLGEVPLTLEDKERGSQLLTNWENMTKNLDDSDDVVKIALVGKYTNLKDSYLSVTKSLEHASMKCRRQLEILWVEASNLEPETQEVDKNKFHDSWNKLSSADGILVPGGFGTRGIEGMILAAKWARESGVPFLGVCLGLQVAAIEFARNVIGRPNSSSTEFLDETLLAPEDQVVIYMPEIDKEHMGGTMRLGLRPTIFQPNSEWSNIRKLYGEVNEVHERHRHRYEINPKIVNDMESRGFIFVGKDETGQRCEIFELKGHPYYVGTQYHPEYTSKVLEPSRPFWGLVAAASGTLGEVIKDINLSEGNENE

Experiments:
[1] = target: HA-tagged Cct8 (budding yeast) (UniProt P47079); assay: co-IP
[2] = target: T1, HA-tagged Pcl7 (budding yeast); assay: co-IP
[3] = target: T2, HA-tagged Ura8 (budding yeast); assay: co-IP
Hir2 (budding yeast) = Hir2 (budding yeast) (UniProt P32480); assay: co-IP
[4] = target: T3, Mtw1 (bait of the co-IP in yeast) (budding yeast); assay: co-IP
[5] = target: HIS-tagged Ssa1 (budding yeast) (UniProt P10591); assay: cross-linking
[6] = target: Ssa1, FLAG-tagged and HA-tagged constructs expressed together in yeast (budding yeast) (UniProt P10591); assay: co-IP

Binder	binding [5]	other results
B1	binds	binding [1]: binds; binding [2]: binds; binding [3]: binds; binding (Hir2 (budding yeast)): binds; binding [4]: binds
B2		binding [6]: binds
B3	binds	
B4	binds	
B5	binds	
B6	binds	
B7	binds	
